Laboratory results from PMC5379941.
Results are given in words; binding and its absence hold for the method and conditions named. In cells and extracts the contact can be indirect. Here binding means that the protein was enriched with, or labelled near, the bait; the list need not be complete. Where a sequence is shown, tags or fusion partners need not be part of it.

Sequences of proteins named here, by UniProt entry; tags and fusion partners are left off.
UniProt P47756: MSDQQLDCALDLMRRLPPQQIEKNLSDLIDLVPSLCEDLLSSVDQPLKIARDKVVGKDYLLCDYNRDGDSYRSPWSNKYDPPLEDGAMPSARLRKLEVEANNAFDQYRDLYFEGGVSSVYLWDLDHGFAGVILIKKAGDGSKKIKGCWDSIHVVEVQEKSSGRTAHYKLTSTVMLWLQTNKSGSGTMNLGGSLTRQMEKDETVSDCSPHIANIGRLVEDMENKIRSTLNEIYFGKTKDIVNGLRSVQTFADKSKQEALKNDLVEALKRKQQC

Biological target: T1, KDM3A (histone lysine demethylase), endogenous (human (endogenous in hTERT RPE1)) (UniProt Q9Y4C1)
T1 sequence: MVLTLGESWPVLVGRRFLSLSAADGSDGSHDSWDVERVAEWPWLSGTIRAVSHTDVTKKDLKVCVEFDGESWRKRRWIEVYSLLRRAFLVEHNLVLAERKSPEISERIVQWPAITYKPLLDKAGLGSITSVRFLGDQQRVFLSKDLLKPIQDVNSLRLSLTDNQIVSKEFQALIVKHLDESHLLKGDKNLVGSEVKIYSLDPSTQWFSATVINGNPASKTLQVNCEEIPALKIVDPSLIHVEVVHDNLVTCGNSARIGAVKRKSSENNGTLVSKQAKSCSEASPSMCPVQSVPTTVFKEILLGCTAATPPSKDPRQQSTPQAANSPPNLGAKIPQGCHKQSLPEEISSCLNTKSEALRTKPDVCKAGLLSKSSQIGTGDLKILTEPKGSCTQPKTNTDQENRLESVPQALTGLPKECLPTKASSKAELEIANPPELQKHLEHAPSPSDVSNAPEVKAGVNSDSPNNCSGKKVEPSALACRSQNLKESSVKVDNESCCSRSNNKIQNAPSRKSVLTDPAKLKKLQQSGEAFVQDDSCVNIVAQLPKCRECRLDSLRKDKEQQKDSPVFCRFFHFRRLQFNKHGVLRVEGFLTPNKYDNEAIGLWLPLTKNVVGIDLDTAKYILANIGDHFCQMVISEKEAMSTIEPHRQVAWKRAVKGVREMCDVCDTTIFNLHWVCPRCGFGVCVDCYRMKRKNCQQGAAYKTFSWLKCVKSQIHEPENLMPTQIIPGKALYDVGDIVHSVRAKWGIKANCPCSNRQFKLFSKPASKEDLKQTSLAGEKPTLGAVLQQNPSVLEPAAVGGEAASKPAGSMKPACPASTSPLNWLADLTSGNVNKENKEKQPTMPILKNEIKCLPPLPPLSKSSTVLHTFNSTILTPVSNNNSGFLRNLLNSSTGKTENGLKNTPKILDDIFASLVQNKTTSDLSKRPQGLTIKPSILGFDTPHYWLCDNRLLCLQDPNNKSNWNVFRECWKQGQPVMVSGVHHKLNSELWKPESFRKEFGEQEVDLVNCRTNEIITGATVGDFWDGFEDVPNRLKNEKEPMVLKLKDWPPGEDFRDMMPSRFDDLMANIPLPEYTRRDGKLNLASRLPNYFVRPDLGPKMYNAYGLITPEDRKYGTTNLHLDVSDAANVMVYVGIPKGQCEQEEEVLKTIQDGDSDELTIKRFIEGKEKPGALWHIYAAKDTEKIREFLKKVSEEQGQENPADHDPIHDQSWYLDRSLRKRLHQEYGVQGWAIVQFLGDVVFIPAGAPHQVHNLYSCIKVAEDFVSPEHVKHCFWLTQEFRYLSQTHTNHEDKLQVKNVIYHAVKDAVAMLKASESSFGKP
Test: affinity purification with mass spectrometry; endogenous KDM3A immunopurified with N-KDM3A antibody and PureProteome magnetic beads from RPE1^WT against KDM3A^null extracts, cells 3 h without serum; 50 mM Tris-HCl pH 7.5, 100 mM NaCl, 10% glycerol, 5 mM EDTA, 0.5% IGEPAL; 2 h at 4°C; label-free quantification

binding: binds
Substance: CAPZB (actin-capping protein), endogenous (from UniProt P47756 1-272)
